Earlier results in patent US20080096926A1, “Treatment Of Cognitive Impairment Using A Selective Dopamine D1 Receptor Agonist” (DrugAbuse Sciences SAS, priority 2002, published 2008).
At least one compound was matched to its structure with a doubt left.

Tests used:
[1] = system: young control monkeys and aged monkeys
[2] = system: prefrontal cortex of rhesus monkeys; settings: local injections into the prefrontal cortex of rhesus monkeys

Row | SMILES | behavioral effects (schizophrenic patients) | blockade of dihydrexidine-induced memory improvements [1] | blockade of dihydrexidine effects on parkinsonian signs (MPTP treated monkeys) | performance on working memory tasks [2] | effectiveness compared with other antipsychotics (schizophrenia; in vivo) | attention and verbal fluency (schizophrenia; schizophrenia) | working memory (schizophrenia; schizophrenia)
1 | CN1CCc2cc(Cl)c(O)cc2[C@@H](c2ccccc2)C1 [SCH23390] | profound behavioral effects | blocked | blocked | induce errors and increase latency of performance |  |  | 
2 | CN1CCN(C2=Nc3cc(Cl)ccc3Nc3ccccc32)CC1 [clozapine] |  |  |  |  | more effective than other antipsychotics | improves | inconclusive
